Source: patent US20250270315A1
Changes are numbered by the printed parent chain. No constants are given. Whether binding was seen depends on the method and setting. Some entries that bind do so weakly or less than the wild type.

Sequences of proteins named here, by UniProt entry; tags and fusion partners are left off. A change or cut given only in a name is not applied to a line headed by its entry. A line that says so, or that is headed by a name, gives the form on record, which may keep a tag or linker. Residues count along the entry.
UniProt Q5TFQ8: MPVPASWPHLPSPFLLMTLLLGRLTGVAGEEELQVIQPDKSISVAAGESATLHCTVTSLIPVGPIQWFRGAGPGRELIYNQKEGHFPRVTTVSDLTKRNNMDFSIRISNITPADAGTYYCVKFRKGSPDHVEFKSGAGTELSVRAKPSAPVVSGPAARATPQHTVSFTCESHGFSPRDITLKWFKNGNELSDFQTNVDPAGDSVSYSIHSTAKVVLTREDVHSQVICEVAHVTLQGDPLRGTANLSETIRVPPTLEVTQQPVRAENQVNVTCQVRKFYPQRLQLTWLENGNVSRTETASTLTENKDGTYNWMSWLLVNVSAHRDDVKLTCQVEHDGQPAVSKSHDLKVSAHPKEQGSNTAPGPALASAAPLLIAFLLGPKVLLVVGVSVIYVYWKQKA
UniProt P78324: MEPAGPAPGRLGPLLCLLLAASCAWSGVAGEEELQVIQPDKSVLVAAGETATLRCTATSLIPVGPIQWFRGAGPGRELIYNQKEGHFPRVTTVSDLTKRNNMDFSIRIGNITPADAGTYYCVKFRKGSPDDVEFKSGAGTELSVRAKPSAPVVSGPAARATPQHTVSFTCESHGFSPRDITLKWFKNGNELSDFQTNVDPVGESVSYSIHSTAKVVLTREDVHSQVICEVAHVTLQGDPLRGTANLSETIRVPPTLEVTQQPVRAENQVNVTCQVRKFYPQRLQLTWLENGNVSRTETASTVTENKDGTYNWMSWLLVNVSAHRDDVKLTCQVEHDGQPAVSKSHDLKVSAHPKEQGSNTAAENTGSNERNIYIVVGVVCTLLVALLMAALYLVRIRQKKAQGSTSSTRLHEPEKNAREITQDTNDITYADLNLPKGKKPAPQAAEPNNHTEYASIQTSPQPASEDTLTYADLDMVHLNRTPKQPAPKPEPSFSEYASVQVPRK
full length human SIRPα v1 stably expressed on CHOK1 or 293F cells: residues 31-504 of P78324
UniProt Q9P1W8, residues 29-387: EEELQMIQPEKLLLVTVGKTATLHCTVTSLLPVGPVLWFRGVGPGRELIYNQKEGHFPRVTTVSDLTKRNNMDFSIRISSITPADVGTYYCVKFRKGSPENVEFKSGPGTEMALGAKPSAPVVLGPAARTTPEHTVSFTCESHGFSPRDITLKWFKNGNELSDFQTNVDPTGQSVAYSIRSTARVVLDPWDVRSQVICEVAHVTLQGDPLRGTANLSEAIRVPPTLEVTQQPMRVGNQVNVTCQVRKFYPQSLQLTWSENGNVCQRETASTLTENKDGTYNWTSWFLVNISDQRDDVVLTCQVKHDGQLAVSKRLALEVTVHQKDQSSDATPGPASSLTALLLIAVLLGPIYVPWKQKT
UniProt O00241: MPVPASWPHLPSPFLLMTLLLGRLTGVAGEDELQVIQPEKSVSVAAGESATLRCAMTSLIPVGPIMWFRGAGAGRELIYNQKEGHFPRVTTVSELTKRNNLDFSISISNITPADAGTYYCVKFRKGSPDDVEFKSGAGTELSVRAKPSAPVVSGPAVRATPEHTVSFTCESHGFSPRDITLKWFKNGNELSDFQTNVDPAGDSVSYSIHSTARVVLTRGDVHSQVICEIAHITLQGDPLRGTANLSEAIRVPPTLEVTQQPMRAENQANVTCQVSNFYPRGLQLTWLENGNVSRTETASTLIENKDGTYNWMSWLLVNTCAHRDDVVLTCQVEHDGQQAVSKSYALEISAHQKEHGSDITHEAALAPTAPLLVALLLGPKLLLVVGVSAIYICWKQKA
human SIRPβ stably expressed on CHOK1 cells: residues 30-398 of O00241
human SIRPβ ECD recombinant protein (6×His tagged): residues 30-371 of O00241

What was measured:
[1] = target: human SIRPβL ECD recombinant protein (6×His tagged) (human) (UniProt Q5TFQ8); assay: ELISA, human SIRPβI ECD
[2] = target: human SIRPβL ECD recombinant protein (6×His tagged) (human) (UniProt Q5TFQ8); assay: ELISA, recombinant human SIRPβL (SIRPβI) ECD
[3] = target: human SIRPα v1 ECD recombinant protein (tag not given) (human) (UniProt P78324); assay: competitive ELISA, coated human SIRPα v1 ECD, blocked ligand mFc tagged human CD47 ECD
[4] = target: human SIRPγ stably expressed on 293F cells (human) (UniProt Q9P1W8); assay: FACS, 293F cells stably expressing human SIRPγ
[5] = target: human SIRPβ ECD recombinant protein (6×His tagged) (human) (UniProt O00241); assay: ELISA, recombinant human SIRPβ ECD
[6] = target: full length human SIRPα v1 stably expressed on CHOK1 or 293F cells (human) (UniProt P78324); assay: competitive FACS, CHOK1 cells expressing human SIRPα v1, blocked ligand mFc tagged human CD47 ECD
[7] = target: human SIRPγ stably expressed on 293F cells (human) (UniProt Q9P1W8); assay: FACS, 293F-human SIRPγ cells
[8] = target: human SIRPβ stably expressed on CHOK1 cells (human) (UniProt O00241); assay: FACS, CHOK1-human SIRPβ cells
[9] = target: full length human SIRPα v1 stably expressed on CHOK1 or 293F cells (human) (UniProt P78324); assay: FACS, CHOK1-human SIRPα v1 cells
[10] = target: human SIRPβ stably expressed on CHOK1 cells (human) (UniProt O00241); assay: FACS, CHOK1 cells stably expressing human SIRPβ
[11] = target: full length human SIRPα v1 stably expressed on CHOK1 or 293F cells (human) (UniProt P78324); assay: FACS, CHOK1 cells stably expressing human SIRPα v1
[12] = target: human SIRPβ ECD recombinant protein (6×His tagged) (human) (UniProt O00241); assay: ELISA, human SIRPβ ECD

Measured: binding

B1: 025c (antibody, V domains shown)
VH: EVQLQQSGAELVKPGASVKLSCTASGFNIKDYYMHWVKQRTEQGLEWIGRIDPEDGETKYAPKFQGKATITADTSSNTAYLQLSSLTSEDTAVYYCDRGLAYWGQGTLVTVSA
VL: QIVLTQSPAIMSASPGEKVTLTCSASSSVSSSYLYWYQQKPGSSPKLWIYSTSNLASGVPARFSGSGSGTSYSLTISSMEAEDAASYFCHQWSSYPYTFGGGTKLEIK
binds: [1] | [2]

B2: 015c (antibody, V domains shown)
VH: EVQLQQSGVEVVQPGASVKLSCTASGFNIEAYYMHWVKQRTEQGLEWIGRIDPEDGESKYAPKFQGKATMTADTSSSTAYLQLSSLTSDDTAVYYCVRGSYEYWGQGTTLTVSS
VL: B1 VL with A61P, E80Q, H90Y
binds: [1] | [2]

B3: 042c (antibody, V domains shown)
VH: QIQLVQSGPELKKPGETVKISCRASGYTFTTYGMSWVKQAPGKGLRWMGWINTYSGVSTCADDFKGRFAFSLETSATTAYLQIHNLTNEDTATYFCARDPHSYGNSPAWFPYWGQGTLVTVSA
VL: DIVMTQSQKFMSTTIRDRVSITCKASQNVGISVAWYQQKSGQSPKLLIYSASNRYTGVPDRFTGSGSGTDFTLTISNMQSEDLADYFCQQYSSYPLTFGSGTKLAIK
binds: [1] | [2]

B4: 073c (antibody, V domains shown)
VH: QIQLVQSGPELKKPGETVKISCKASGYTFTTYGMSWVKQAPGKGLKWMVWINTYSGVPTYADDFKGRFAFSLETSASTSYLQINNLKNEDTATYFCARDPHYYGSSPAWFVYWGQGTLVTVSA
VL: B3 VL with R16G, K24E, N28I, S32A, S40P, D85N, S93A, L96F, A105E, I106V
binds: [1] | [2]

B5: 071c (antibody, V domains shown)
VH: B4 VH with K65Q, K87R, S105T, V111A
VL: B3 VL with R16G, S20I, N28I, S32A, S40P, Y55F, S93T, L96F, A105E
binds: [1] | [2]

B6: 059c (antibody, V domains shown)
VH: QVQLQQSGPELVKPGASVKMSCKASGYTFSEYVLSWVKQRTGQGLEWIGEIYPGTITTYYNEKFKGKATLTADKSSNTAYIQLTSLTSEDSAVYFCGRFYDYDGGWFAYWGQGTLLTVSA
VL: ENVLTQSPEKMAVSLGQKVTMTCSASSSVSSSDLHWYQQKSGASPKPLIHGTSNLASGVPARFSGSGSGTSYSLTISSVEAEDAATYYCQQWSGYPWTFGGGTNLEIK
binds: [1] | [2]

B7: hu1H9G4 (antibody, V domains shown)
VH: QVQLVQSGAEVKKPGASVKVSCKASGYTFTSYWITWVKQAPGQGLEWIGDIYPGSGSTNHIEKFKSKATLTVDTSISTAYMELSRLRSDDTAVYYCATGYGSSYGYFDYWGQGTLVTVSS
VL: DIQMTQSPSSLSASVGDRVTITCRASENIYSYLAWYQQKPGKAPKLLIYTAKTLAEGVPSRFSGSGSGTDFTLTISSLQPEDFATYYCQHQYGPPFTFGQGTKLELK
binds: [3] | [4] | [5] | [1] | [2] | [6] | [7] | [8] | [9] | [10] | [11] | [12]
